From ChEMBL document CHEMBL3988442, “University of Dundee, Small-Polar-MMV Screening Library” (2021).

The chains behind the UniProt entries cited, without tags or fusion partners. Residues count along the entry.
UniProt A4I591, 1-473: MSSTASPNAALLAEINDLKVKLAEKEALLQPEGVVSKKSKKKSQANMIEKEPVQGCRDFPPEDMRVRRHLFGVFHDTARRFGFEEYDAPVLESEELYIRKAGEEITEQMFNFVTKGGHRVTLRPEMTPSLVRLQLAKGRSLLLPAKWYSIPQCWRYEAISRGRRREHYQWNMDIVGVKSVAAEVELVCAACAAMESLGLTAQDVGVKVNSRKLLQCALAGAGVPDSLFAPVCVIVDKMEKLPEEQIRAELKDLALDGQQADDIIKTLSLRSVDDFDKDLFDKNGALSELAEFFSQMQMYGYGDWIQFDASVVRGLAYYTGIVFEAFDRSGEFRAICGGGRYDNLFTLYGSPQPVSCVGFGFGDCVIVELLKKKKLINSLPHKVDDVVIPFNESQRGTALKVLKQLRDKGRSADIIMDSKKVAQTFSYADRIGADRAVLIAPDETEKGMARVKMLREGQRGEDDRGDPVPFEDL
UniProt P9WFT3, whole entry: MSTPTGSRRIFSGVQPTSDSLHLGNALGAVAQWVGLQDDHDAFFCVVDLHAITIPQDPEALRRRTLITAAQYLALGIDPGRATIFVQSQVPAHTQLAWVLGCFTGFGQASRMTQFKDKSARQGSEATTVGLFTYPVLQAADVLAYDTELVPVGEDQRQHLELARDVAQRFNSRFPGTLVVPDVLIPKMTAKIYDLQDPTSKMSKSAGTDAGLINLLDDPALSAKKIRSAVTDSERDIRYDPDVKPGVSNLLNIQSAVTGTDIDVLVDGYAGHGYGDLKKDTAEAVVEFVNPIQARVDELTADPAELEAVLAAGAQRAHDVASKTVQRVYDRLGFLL

Values are the deposited “Percent Effect”, in %. The record does not define 0% and 100%; most values in the screen are far below 50% and negative numbers occur (in some assays of this library far below -100). This is an unselected part of the compounds tested. A dash means the value is not listed here; it may have been measured.

LiHisRS: 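Enzyme assay of histidyl-tRNA synthetase; the read-out is not stated. Target: Histidine-tRNA ligase, Leishmania infantum (UniProt A4I591). Compounds at 30 µM. The record gives no direction; compounds that gave an IC50 in retests scored well above the rest, so higher reads as stronger inhibition. The assay is labelled LdHisRS but filed under L. infantum. Size under these conditions: about 69,000 compounds, about 410 of them at 50% or above in at least one test.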
T. brucei: 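Whole-parasite assay of Trypanosoma brucei over 72 hours; the read-out is not stated. Compounds at 30 µM. The record gives no direction; compounds that gave an IC50 in retests scored well above the rest, so higher reads as stronger inhibition. Values scatter widely below zero; nearly all retest evidence comes from the higher of the two concentrations used. Of about 64,000 compounds tested this way, about 940 (1.5%) reached 50% or more in at least one test.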
MtTrpRS: 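Tryptophan-tRNA ligase, Mycobacterium tuberculosis (UniProt P9WFT3). Enzyme assay of tryptophanyl-tRNA synthetase; the read-out is not stated. Tested at 10 µM. Higher most likely means stronger inhibition; the record gives no direction and few retests gave an IC50. Of about 65,000 compounds tested this way, about 64 (0.098%) reached 50% or more in at least one test.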

{"smiles": "CN1CCN(C(=O)N2CCC3(CCCN(C4CCOCC4)C3=O)C2)CC1", "stereo": "configuration not stated", "LiHisRS": 15.96, "T. brucei": -11.15, "MtTrpRS": 5.477}
{"smiles": "CS(=O)(=O)NCCCNC(=O)NCc1ccccc1", "LiHisRS": 7.826, "T. brucei": -16.43, "MtTrpRS": -3.067}
{"smiles": "CS(=O)(=O)CC(=O)N1C[C@H]2CCC[C@@]2(COc2ccccn2)C1", "LiHisRS": -5.941}
{"smiles": "Cc1noc(NS(=O)(=O)c2ccc(Cl)s2)c1C", "LiHisRS": 17.74, "T. brucei": -13.71, "MtTrpRS": -1.49}
{"smiles": "CCn1c(CN2CCOC(Cn3cccn3)C2)nc2c(F)cccc21", "stereo": "configuration not stated", "LiHisRS": 13.79, "T. brucei": -54.52, "MtTrpRS": -5.161}
{"smiles": "CCc1nccn1C1CCCN(C(=O)c2cc(C3CC3)on2)C1", "stereo": "configuration not stated", "LiHisRS": 15.09, "T. brucei": -34.33, "MtTrpRS": 0.1649}
{"smiles": "CNC(=O)CS(=O)(=O)C1CCN(S(=O)(=O)c2ccccc2Br)CC1", "LiHisRS": 9.615, "T. brucei": -65.62, "MtTrpRS": 4.205}
{"smiles": "O=C(O)C(F)(F)F.[H][C@@]12C[C@H](C(=O)N3CCCO3)CN(CCc3ccccc3)[C@]1([H])CCO2", "T. brucei": -303.5}
{"smiles": "CCN(CC(=O)NC)C(=O)c1cc(-c2cccc(Cl)c2)no1", "LiHisRS": 12.7, "T. brucei": -4.708, "MtTrpRS": 4.686}
{"smiles": "CC(C)n1cnnc1Cn1c(=O)ccc2ccccc21", "LiHisRS": -5.376, "T. brucei": 2.627, "MtTrpRS": 0.9054}
{"smiles": "COc1ccc(CNCc2ccnc(N3CCOCC3)c2)c(OC)c1", "LiHisRS": 14.29, "T. brucei": -27.55, "MtTrpRS": 1.174}
{"smiles": "COc1cccc(CC(=O)N2CCCSCC2CN2CCCC2)c1", "stereo": "configuration not stated", "LiHisRS": 22.61, "T. brucei": 14.38, "MtTrpRS": -1.292}
{"smiles": "CCn1ncnc1C(C)NC(=O)Cc1cc2c(cc1Cl)OCCO2", "stereo": "configuration not stated", "LiHisRS": 14.58, "T. brucei": -4.623, "MtTrpRS": 2.626}
{"smiles": "O=C(CSC1CCc2ccccc2NC1=O)NC1CC1", "stereo": "configuration not stated", "LiHisRS": 12.99, "T. brucei": -9.17, "MtTrpRS": -0.1236}
{"smiles": "[H][C@@]12CCN(Cc3ccc4c(c3)OCO4)C[C@@]1([H])O[C@@H](c1noc(C)n1)C2", "T. brucei": -43.52}
{"smiles": "[H][C@]12CC[C@@]3(N=C(CC)N(C)C3=O)[C@@]1([H])CN(C(=O)Nc1ccccc1)C2", "T. brucei": -23.6}
{"smiles": "Cc1cc(F)c(S(=O)(=O)NCc2ccnc(N(C)C)n2)cc1F", "LiHisRS": 11.11, "T. brucei": 0.4554, "MtTrpRS": -5.091}
{"smiles": "CCC(C)S(=O)(=O)N1CCc2nc(C3CCNCC3)ncc2C1.Cl", "stereo": "configuration not stated", "T. brucei": -15.33}
{"smiles": "NC(=O)C1CCN(C(=O)c2ccn(-c3cccc(Cl)c3)n2)C1", "stereo": "configuration not stated", "LiHisRS": 9.091, "T. brucei": -20.26, "MtTrpRS": -1.83}
{"smiles": "Nc1ccc(-c2ccc(F)cc2Cl)cn1", "LiHisRS": 8.772, "T. brucei": -104, "MtTrpRS": -9.513}
{"smiles": "CN1CCc2c(C#N)c(NCCCN3CCOCC3)n3cnnc3c2C1", "LiHisRS": 22.86, "MtTrpRS": 0.7415}
{"smiles": "NCC(=O)N1CCCC1c1ccc(C(=O)NCc2ccoc2)s1", "stereo": "configuration not stated", "LiHisRS": 6.452, "T. brucei": 8.169, "MtTrpRS": -4.728}
{"smiles": "CC(C)S(=O)(=O)N1CCCC(c2nccn2Cc2cccnc2)C1", "stereo": "configuration not stated", "LiHisRS": 2.667, "T. brucei": -4.258, "MtTrpRS": 2.805}
{"smiles": "CCn1ccnc1CN1CCCN(C(=O)c2cc(C)nn2CC)CC1", "LiHisRS": 7.339, "MtTrpRS": -4.888}
{"smiles": "c1ccc(CN2C[C@@H]3OCCN(c4cccnc4)[C@@H]3C2)nc1", "LiHisRS": 17.65, "MtTrpRS": 3.868}
{"smiles": "[H][C@@]12OCCC[C@]1([H])N(C(=O)c1ccsc1)C[C@@H]2N1CCOCC1", "T. brucei": -1.525}
{"smiles": "CCC(C)N1CCC2(CC1)CN(c1cncnc1)C(=O)CO2", "stereo": "configuration not stated", "LiHisRS": 20.51, "MtTrpRS": -3.873}
{"smiles": "[H][C@@]12C[C@H](C(=O)N3CCCC3)[C@@]([H])(CN(C(=O)Nc3ccccc3)C1)O2", "T. brucei": -21.95}
{"smiles": "Cc1nc(C)n(CC2CCCN2Cc2nc3ccccc3o2)n1", "stereo": "configuration not stated", "LiHisRS": 7.826, "T. brucei": -18.99, "MtTrpRS": -5.367}
{"smiles": "COc1ccc(C(C(=O)O)N2CCN(C3CCCCC3)CC2)cc1OC", "stereo": "configuration not stated", "LiHisRS": 18.18, "T. brucei": -26.04, "MtTrpRS": 1.413}
{"smiles": "Cc1ccc(CC(=O)N2CCN(c3nccs3)CC2)s1", "LiHisRS": 4.386, "T. brucei": -52.76, "MtTrpRS": 10.88}
{"smiles": "CC(=O)c1cccc(NC(=O)CN2CCCCC2C(=O)N2CCCC2)c1", "stereo": "configuration not stated", "LiHisRS": 8.036, "T. brucei": -29.98, "MtTrpRS": -2.16}

The first 3 entries again:

SMILES	LiHisRS	T. brucei	MtTrpRS
CN1CCN(C(=O)N2CCC3(CCCN(C4CCOCC4)C3=O)C2)CC1 (configuration not stated)	15.96%	-11.15%	5.477%
CS(=O)(=O)NCCCNC(=O)NCc1ccccc1	7.826%	-16.43%	-3.067%
CS(=O)(=O)CC(=O)N1C[C@H]2CCC[C@@]2(COc2ccccn2)C1	-5.941%	-	-